Source: patent US11001562B2, “Near-infrared fluorescent nerve contrast agents and methods of use thereof” (Beth Israel Deaconess Medical Center, priority 2013, dated 2021)
Some entries share one result that the patent states for a list of compounds.

Experiment: Optical property measurements (absorbance and fluorescence spectra)
Assay type: physicochemical
Conditions: for λ (extinction coefficient): 100% FBS with 50 mM HEPES, pH 7.4, 37° C.; for Stokes' shift: 100% serum, pH 7.4
Description: Absorbance and fluorescence spectra were obtained at a concentration of […] in 100% FBS supplemented with 50 mM HEPES, pH 7.4. B) Optical properties of Oxazine 4 were measured in PBS (pH 7.4), FBS (pH 7.4), MeOH, and DMSO.
Oxazine derivatives were obtained from Fisher Scientific Inc. (Pittsburgh, Pa.) or Sigma-Aldrich (Saint Louis, Mo.), and BMB was synthesized as described previously (25). Optical measurements were performed at 37° C. in phosphate-buffered saline (PBS), pH 7.4 or 100% fetal bovine serum (FBS) buffered with 50 mM HEPES, pH 7.4. Absorbance and fluorescence emission spectra were measured using fiber optic HR2000 absorbance (200-1100 nm) and USB2000FL fluorescence (350-1000 nm) spectrometers (Ocean Optics, Dunedin, Fla.). NIR excitation was provided by a 532 nm green laser pointer (Opcom Inc., Xiamen, China) set to 5 mW and coupled through a […] core diameter, NA 0.22 fiber (Fiberguide Industries, Stirling, N.J.). In silico calculation of the partition coefficient (log D at pH 7.4) was calculated using Marvin and J Chem calculator plugins (ChemAxon, Budapest, Hungary). Chemical similarities were calculated by Instant J Chem 6.04 using “Chemical Hashed Fingerprint” with the Normalized Euclidean dissimilarity screening configuration (ChemAxon).
All optical measurements were performed at 37° C. in phosphate-buffered saline (PBS), pH 7.4, 100% fetal bovine serum (FBS) buffered with 50 mM HEPES, pH 7.4, methanol (MeOH), or dimethyl sulfoxide (DMSO). Absorbance and fluorescence emission spectra of the series of NIR fluorophores were measured using fiber optic HR2000 absorbance (200-1100 nm) and USB2000FL fluorescence (350-1000 nm) spectrometers (Ocean Optics, Dunedin, Fla.). Excitation light was provided by a 532 nm green laser pointer (Opcom Inc., Xiamen, China) set to 5 mW and coupled through a 300 μm core diameter, NA 0.22 fiber (Fiberguide Industries, Stirling, N.J.). In silico calculation of the partition coefficient (log D at pH 7.4) was calculated using Marvin and J Chem calculator plugins (ChemAxon, Budapest, Hungary).

Row | SMILES | λ (extinction coefficient) | Stokes' shift
1 | CCN(CC)c1ccc2nc3ccc(=[N+](CC)CC)cc-3oc2c1 [Oxazine 1] | > 140,000 M^−1cm^−1 | > 17 nm
2 | CC/N=c1/cc2oc3cc(NCC)c(C)cc3nc-2cc1C [Oxazine 4] | > 140,000 M^−1cm^−1 | > 17 nm
